The values below come from the supplement of paper PMC4604168 (melanoma cell lines).

The list shows a part of the results. Single values are uncertain, as repeats are few or missing.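 Cells were imaged in 1,536-well plates, and nuclei stained with an antibody against cleaved PARP were counted against all DNA-stained nuclei to give the apoptosis fraction. Screening doses were chosen to leave most cells alive, and resting and induced cleaved-PARP levels differ strongly between cell lines.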

This experiment concerns WM451Lu. Briefly: cleaved PARP positive nuclei fraction relative to DMSO control; melanoma cells; higher = more apoptosis. Particulars: library dose: low library concentration; 72 h.
For `C[C@]12O[C@H](C[C@]1(O)CO)n1c3ccccc3c3c4c(c5c6ccccc6n2c5c31)CNC4=O` [Lestaurtinib] + Oc1cc(-c2nc(-c3ccccc3)[nH]c2-c2ccncc2)ccc1Cl [L779450] (first compound 0.004 µM, partner dose 0.2 µM), the “cleaved PARP positive nuclei fraction” value is 38.3%.
With `COc1ccc2c(c1)CCC1C2CCC2(C)C(NCCCCCCN3C(=O)C=CC3=O)CCC12` (configuration not stated) + C/C(O)=C(\C#N)C(=O)Nc1cc(Br)ccc1Br [LFM-A13] (first compound 0.4 µM, partner dose 2 µM) the figure was 394%; with `Cc1cc(SCc2sc(-c3ccc(C(F)(F)F)c(F)c3)nc2C)ccc1OCC(=O)O` + C/C(O)=C(\C#N)C(=O)Nc1cc(Br)ccc1Br [LFM-A13] (first compound 2 µM, partner dose 2 µM), 106%.
To `COC(=O)c1sccc1S(=O)(=O)Nc1ccc(Nc2ccccc2)cc1OC` + C/C(O)=C(\C#N)C(=O)Nc1cc(Br)ccc1Br [LFM-A13] (first compound 1 µM, partner dose 2 µM) belongs 131%; to `O=C(O)c1ccc(-c2c[nH]c3ncc(-c4ccccc4)cc23)cc1C1CCCC1` + O=C(Oc1ccc([N+](=O)[O-])cc1)N1CCC(C(O)(c2ccc3c(c2)OCO3)c2ccc3c(c2)OCO3)CC1 [JZL184] (first compound 0.16 µM, partner dose 1 µM), 57.3%.
To `C[C@@H]1CCN(C(=O)CC#N)C[C@@H]1N(C)c1ncnc2[nH]ccc12` + Cc1cc(SCc2sc(-c3ccc(C(F)(F)F)c(F)c3)nc2C)ccc1OCC(=O)O [GW0742] (first compound 1 µM, partner dose 2 µM) belongs 79.9%; to `O=C(Nc1cccc(Cl)c1)Nc1ncc(CCNc2ncnc3ccsc23)s1` + Cc1cc(SCc2sc(-c3ccc(C(F)(F)F)c(F)c3)nc2C)ccc1OCC(=O)O [GW0742] (first compound 0.0008 µM, partner dose 2 µM), 110%.
Take `C[C@]12O[C@H](C[C@]1(O)CO)n1c3ccccc3c3c4c(c5c6ccccc6n2c5c31)CNC4=O` [Lestaurtinib] + COc1cc2ncnc(Nc3ccc(Oc4ccccc4)cc3)c2cc1OC [SrcI1] (first compound 0.004 µM, partner dose 2 µM): the “cleaved PARP positive nuclei fraction” value was determined as 105%.
To `C[As](C)SC[C@H](NC(=O)CC[C@H](N)C(=O)O)C(=O)NCC(=O)O` [Darinaparsin] + COc1ccc(COc2ccc(Cc3cnc(N)nc3N)cc2OC)cc1 [GW2580] (first compound 0.4 µM, partner dose 1 µM) belongs 56.6%; to `C[C@]12O[C@H](C[C@]1(O)CO)n1c3ccccc3c3c4c(c5c6ccccc6n2c5c31)CNC4=O` [Lestaurtinib] + COc1ccc(-c2ccc3c(N4CCOCC4)nc(N4C[C@@H](C)O[C@@H](C)C4)nc3n2)cc1CO [KU0063794] (first compound 0.004 µM, partner dose 0.02 µM), 71.3%.
To `O=S(=O)(c1ccccc1)N(CC(F)(F)F)c1ccc(C(O)(C(F)(F)F)C(F)(F)F)cc1` + Cc1cc(SCc2sc(-c3ccc(C(F)(F)F)c(F)c3)nc2C)ccc1OCC(=O)O [GW0742] (first compound 1.4 µM, partner dose 2 µM) belongs 51.7%; to `COc1ccc(COc2ccc(Cc3cnc(N)nc3N)cc2OC)cc1` + Cc1cc(SCc2sc(-c3ccc(C(F)(F)F)c(F)c3)nc2C)ccc1OCC(=O)O [GW0742] (first compound 1 µM, partner dose 2 µM), 158%.
With `C[As](C)SC[C@H](NC(=O)CC[C@H](N)C(=O)O)C(=O)NCC(=O)O` [Darinaparsin] + CCc1ccc(CCOc2ccc(CC3SC(=O)NC3=O)cc2)nc1 [pioglitazone] (first compound 0.4 µM, partner dose 2 µM) the figure was 77.9%; with `O=C(Oc1ccc([N+](=O)[O-])cc1)N1CCC(C(O)(c2ccc3c(c2)OCO3)c2ccc3c(c2)OCO3)CC1` + CC(C)CCN1c2nc(Nc3cc(F)c(O)c(F)c3)ncc2N(C)C(=O)C1C [BID1870] (first compound 1 µM, partner dose 0.2 µM), 113%; with `CO[C@H]1C[C@@H]2CC[C@@H](C)[C@@](O)(O2)C(=O)C(=O)N2CCCC[C@H]2C(=O)O[C@H]([C@H](C)C[C@@H]2CC[C@@H](OCCO)[C@H](OC)C2)CC(=O)[C@H](C)/C=C(\C)[C@@H](O)[C@@H](OC)C(=O)[C@H](C)C[C@H](C)/C=C/C=C/C=C/1C` [everolimus] + Cc1cc(SCc2sc(-c3ccc(C(F)(F)F)c(F)c3)nc2C)ccc1OCC(=O)O [GW0742] (first compound 0.02 µM, partner dose 2 µM), 163%.
Consider `COc1cc(Nc2ncc(F)c(Nc3ccc4c(n3)NC(=O)C(C)(C)O4)n2)cc(OC)c1OC` [Tamatinib] + O=C(Oc1ccc([N+](=O)[O-])cc1)N1CCC(C(O)(c2ccc3c(c2)OCO3)c2ccc3c(c2)OCO3)CC1 [JZL184] (first compound 0.4 µM, partner dose 1 µM), for which the “cleaved PARP positive nuclei fraction” value came out at 71.9%.
To `COc1cc2ncnc(Nc3ccc(Oc4ccccc4)cc3)c2cc1OC` + O=C(Oc1ccc([N+](=O)[O-])cc1)N1CCC(C(O)(c2ccc3c(c2)OCO3)c2ccc3c(c2)OCO3)CC1 [JZL184] (first compound 2 µM, partner dose 1 µM) belongs 25.7%; to `C/C(O)=C(\C#N)C(=O)Nc1cc(Br)ccc1Br` + O=C(Oc1ccc([N+](=O)[O-])cc1)N1CCC(C(O)(c2ccc3c(c2)OCO3)c2ccc3c(c2)OCO3)CC1 [JZL184] (first compound 2 µM, partner dose 1 µM), 104%; to `C/C(O)=C(\C#N)C(=O)Nc1cc(Br)ccc1Br` + CC(C)CCN1c2nc(Nc3cc(F)c(O)c(F)c3)ncc2N(C)C(=O)C1C [BID1870] (first compound 2 µM, partner dose 0.2 µM), 182%.
To `N#Cc1c(O)c2c(-c3ccc(-c4ccccc4O)cc3)csc2[nH]c1=O` + C/C(O)=C(\C#N)C(=O)Nc1cc(Br)ccc1Br [LFM-A13] (first compound 2 µM, partner dose 2 µM) belongs 94.1%; to `C[C@]12O[C@H](C[C@]1(O)CO)n1c3ccccc3c3c4c(c5c6ccccc6n2c5c31)CNC4=O` [Lestaurtinib] + C[C@@H]1CCN(C(=O)CC#N)C[C@@H]1N(C)c1ncnc2[nH]ccc12 [CP690550] (first compound 0.004 µM, partner dose 1 µM), 74.5%; to `Cc1ccc(NC(=O)c2cccc(N(C)C)c2)cc1NC(=O)c1ccc(O)cc1` + C/C(O)=C(\C#N)C(=O)Nc1cc(Br)ccc1Br [LFM-A13] (first compound 2 µM, partner dose 2 µM), 108%.
